Results taken from article PMC9644274.
These are yes or no findings as the source states them, for the method shown. For some assays here: A result given as binding can be weak or reduced; the word gives no strength. For some assays here: Tags and fused reporters may be left off the sequences shown. For some assays here: Binding seen in cells or lysates may run through a third protein.

Tests used:
[1] = target: GFP-PMTV-TGB2 (potato mop-top virus); test: co-IP; GFP-PMTV-TGB2 coexpressed with mRFP-RTN3 or mRFP-RTN6 in tobacco epidermal leaf cells; precipitated with GFP-Trap (anti-GFP agarose, Chromotek); western blot with anti-RFP and anti-GFP
[2] = target: potato mop-top virus triple gene block 2 (PMTV-TGB2), split-ubiquitin fusion in yeast (potato mop-top virus); test: two-hybrid; yeast mating-based split-ubiquitin system (mbSUS); Nub and Cub fusions; colony growth indicates an interaction
[3] = target: potato virus X triple gene block 2 (PVX-TGB2), split-ubiquitin fusion in yeast (potato virus X); test: as above
[4] = target: potato virus X triple gene block 3 (PVX-TGB3), split-ubiquitin fusion in yeast (potato virus X); test: as above

Binder	binding [1]	binding [2]	binding [3]	binding [4]
mRFP-RTN3 (protein, UniProt Q9SH59 1-255) MAEEHKHEESIMEKISEKIHGHDDSSSSSSDSDDDKNSASLKTKIYRLFGREQPLHKLFGGGKPADIFLWRNKKVSGGVLGAATVSWILFELLEYNLLTLFGHISILALAVLFLWSSASTFIHKSPLHIPEVHIPEDVVLQLASGLRIEINRGFTVLRDIASGRDLKKFLLVIAGLWVLSKVGSSCNFLTLIYIATVLLFTIPVLYEKYEDKVDDFGEKAMREIKKQYVEFDVKVLSKVMSKIPKGAFAFIKKKD	binds			
mRFP-RTN6 (protein, UniProt Q6DBN4 1-253) MAEELEKSMHKEESLMEKIADKIHDHDSSSSSDSEHEKPESPSALKAKIYRLFGREKPVHKVLGGGLPADVFLWRDKKLSASVLGVATAIWVLFELVEYHFLSLVCHILIFALAALFLLSNAHAFMNKTPPKIPEIHIKEEHFLMIVSALRNELNQAFVILRSIALGRDLKKFLMVVFGLWIISVVGNWFNFLTLVYICFVVLHTVPMLYEKHEDKVDPVAEKTLKELKKHYMVFDEKVLSKLPVASLKAKLG	binds			
RTN3 (reticulon 3), split-ubiquitin fusion in yeast (protein, UniProt Q9SH59 1-255) MAEEHKHEESIMEKISEKIHGHDDSSSSSSDSDDDKNSASLKTKIYRLFGREQPLHKLFGGGKPADIFLWRNKKVSGGVLGAATVSWILFELLEYNLLTLFGHISILALAVLFLWSSASTFIHKSPLHIPEVHIPEDVVLQLASGLRIEINRGFTVLRDIASGRDLKKFLLVIAGLWVLSKVGSSCNFLTLIYIATVLLFTIPVLYEKYEDKVDDFGEKAMREIKKQYVEFDVKVLSKVMSKIPKGAFAFIKKKD		no binding	binds	binds
RTN6 (reticulon 6), split-ubiquitin fusion in yeast (protein, UniProt Q6DBN4 1-253) MAEELEKSMHKEESLMEKIADKIHDHDSSSSSDSEHEKPESPSALKAKIYRLFGREKPVHKVLGGGLPADVFLWRDKKLSASVLGVATAIWVLFELVEYHFLSLVCHILIFALAALFLLSNAHAFMNKTPPKIPEIHIKEEHFLMIVSALRNELNQAFVILRSIALGRDLKKFLMVVFGLWIISVVGNWFNFLTLVYICFVVLHTVPMLYEKHEDKVDPVAEKTLKELKKHYMVFDEKVLSKLPVASLKAKLG		no binding	binds	binds
